Measured values from patent US4929601A, “Tripeptides useful as immunostimulants as well as in the prevention of metastases” (Ellem Industria Farmaceutica, S.p.A., priority 1987, dated 1990).
At least one peptide structure holds a part that was inferred or is arguable (an end, a ring closure or a residue). Peptide text beside a SMILES is read from it.

What was measured:
Format in all cases: cell-based
Human T lymphocytes [1] = assay: Effect on cell cycle (propidium iodide, flow cytometer); conditions: 1 μg/ml, 72 hours with PHA
Procedure: Human T lymphocytes have been incubated for 72 hours in presence of PHA and the tripeptides under examination (1 μg/ml). DNA has then been stained with propidium iodide and cells have been analyzed with a flow cytometer.

Human T lymphocytes [2] = assay: Stimulation of lymphokine production in vitro: TCGF (IL-2) activity of supernatants
Procedure: (§1) Human T lymphocytes have been incubated with PHA and with or without the peptides under examination for 24 hours (in the case of IL-2) or 72 hours (in the case of BCGF).
(§2) The supernatants have been collected, filtered (0.2 μm) and assayed for the presence of IL-2 or BCGF activity, by adding them at different concentrations to fresh T lymphocytes or to long term cultured B cells. The proliferating activity of these cells, dependent on the presence of the respective growth factor, has been evaluated through 3H-thymidine incorporation.

[3] = system: pure human T lymphocytes, without macrophages; assay: Lymphokine production by pure human T lymphocytes without macrophages (+IL-1): BCGF activity
Source text: as §2
(§3) The lymphokine production by human T lymphocytes purified through […] on nylon wool column has been evaluated with the same methods as in the previous experiment.
(§4) In order to obviate the lack of macrophages, recombinant IL-1 β (Genzyme) has been added at the concentration of 25 Units/ml.

Human T lymphocytes [4] = assay: Stimulation of lymphokine production in vitro: BCGF activity of supernatants
Procedure: as §1, §2

[5] = system: pure human T lymphocytes, without macrophages; assay: Lymphokine production by pure human T lymphocytes without macrophages (+IL-1): TCGF activity
Source text: as §2, §3, §4

[6] = 1 mcg/ml, 3.125% of supernatant
[7] = 10 mcg/ml, 3.125% of supernatant
[8] = 10 mcg/ml, 6.25% of supernatant
[9] = 10 mcg/ml, 12.5% of supernatant

**Q.** Which results are given for `N=C(N)NCCC[C@H](N)C(=O)N[C@@H](CCCCN)C(=O)N[C@@H](CCC(=O)O)C(=O)O` [ARG--LYS--GLU, Arg-Lys-Glu] (H-Arg-Lys-Glu-OH)?
**A.** G2 + M % cells, difference from T + PHA (Human T lymphocytes [1]): +8.33; Go-Gl % cells, difference from T + PHA (Human T lymphocytes [1]): -7.21; S % cells, difference from T + PHA (Human T lymphocytes [1]): -1.97; CELL PHASES G2 + M % CELLS (Human T lymphocytes [1]; T + PHA 6.02): 14.35%; CELL PHASES S % CELLS (Human T lymphocytes [1]; T + PHA 30.61): 28.64%; CELL PHASES Go-Gl % CELLS (Human T lymphocytes [1]; T + PHA 63.36): 56.15%; TCGF activity Δ % (Human T lymphocytes [2]; 3.125% of supernatant): +189%; TCGF ACTIVITY (mean) (Human T lymphocytes [2]; 3.125% of supernatant, T + PHA 1564): 4516 COUNTS PER MINUTE; TCGF activity Δ % (Human T lymphocytes [2]; 6.25% of supernatant): +290%; TCGF ACTIVITY (mean) (Human T lymphocytes [2]; 6.25% of supernatant, T + PHA 2622): 10213 COUNTS PER MINUTE; TCGF activity Δ % (Human T lymphocytes [2]; 12.5% of supernatant): +314%; TCGF ACTIVITY (mean) (Human T lymphocytes [2]; 12.5% of supernatant, T + PHA 4012): 16609 COUNTS PER MINUTE; TCGF activity Δ % (Human T lymphocytes [2]; 25% of supernatant): +165%; TCGF ACTIVITY (mean) (Human T lymphocytes [2]; 25% of supernatant, T + PHA 7824): 20695 COUNTS PER MINUTE; TCGF activity Δ % (Human T lymphocytes [2]; 50% of supernatant): +31%; TCGF ACTIVITY (mean) (Human T lymphocytes [2]; 50% of supernatant, T + PHA 14086): 18451 COUNTS PER MINUTE; BCGF activity Δ % [3, 6]: +10%; BCGF ACTIVITY c.p.m. ([3]; 1 mcg/ml, 3.125% of supernatant, T + PHA + IL-1 318): 349 c.p.m.; BCGF activity Δ % ([3]; 1 mcg/ml, 6.25% of supernatant): -3%; BCGF ACTIVITY c.p.m. ([3]; 1 mcg/ml, 6.25% of supernatant, T + PHA + IL-1 582): 564 c.p.m.; BCGF activity Δ % ([3]; 1 mcg/ml, 12.5% of supernatant): +160%; BCGF ACTIVITY c.p.m. ([3]; 1 mcg/ml, 12.5% of supernatant, T + PHA + IL-1 1104): 2866 c.p.m.; BCGF activity Δ % ([3]; 1 mcg/ml, 25% of supernatant): +84%; BCGF ACTIVITY c.p.m. ([3]; 1 mcg/ml, 25% of supernatant, T + PHA + IL-1 2507): 4622 c.p.m.; BCGF activity Δ % ([3]; 1 mcg/ml, 50% of supernatant): +100%; BCGF ACTIVITY c.p.m. ([3]; 1 mcg/ml, 50% of supernatant, T + PHA + IL-1 5056): 10099 c.p.m.; BCGF activity Δ % [3, 7]: +96%; BCGF ACTIVITY c.p.m. ([3]; 10 mcg/ml, 3.125% of supernatant, T + PHA + IL-1 318): 622 c.p.m.; BCGF activity Δ % [3, 8]: +35%; BCGF ACTIVITY c.p.m. ([3]; 10 mcg/ml, 6.25% of supernatant, T + PHA + IL-1 582): 784 c.p.m.; BCGF activity Δ % [3, 9]: +189%; BCGF ACTIVITY c.p.m. ([3]; 10 mcg/ml, 12.5% of supernatant, T + PHA + IL-1 1104): 3196 c.p.m.; BCGF activity Δ % ([3]; 10 mcg/ml, 25% of supernatant): +187%; BCGF ACTIVITY c.p.m. ([3]; 10 mcg/ml, 25% of supernatant, T + PHA + IL-1 2507): 7187 c.p.m.; BCGF activity Δ % ([3]; 10 mcg/ml, 50% of supernatant): +174%; BCGF ACTIVITY c.p.m. ([3]; 10 mcg/ml, 50% of supernatant, T + PHA + IL-1 5056): 13863 c.p.m.; BCGF activity Δ % (Human T lymphocytes [4]; 3.125% of supernatant): +300%; BCGF ACTIVITY (mean) (Human T lymphocytes [4]; 3.125% of supernatant, T + PHA 1345): 5377 COUNTS PER MINUTE; BCGF activity Δ % (Human T lymphocytes [4]; 6.25% of supernatant): +370%; BCGF ACTIVITY (mean) (Human T lymphocytes [4]; 6.25% of supernatant, T + PHA 2156): 10125 COUNTS PER MINUTE; BCGF activity Δ % (Human T lymphocytes [4]; 12.5% of supernatant): +236%; BCGF ACTIVITY (mean) (Human T lymphocytes [4]; 12.5% of supernatant, T + PHA 5402): 18143 COUNTS PER MINUTE; BCGF activity Δ % (Human T lymphocytes [4]; 25% of supernatant): +46%; BCGF ACTIVITY (mean) (Human T lymphocytes [4]; 25% of supernatant, T + PHA 15030): 21977 COUNTS PER MINUTE; BCGF activity Δ % (Human T lymphocytes [4]; 50% of supernatant): +31%; BCGF ACTIVITY (mean) (Human T lymphocytes [4]; 50% of supernatant, T + PHA 17297): 22666 COUNTS PER MINUTE; TCGF activity Δ % [5, 6]: +48%; TCGF ACTIVITY c.p.m. ([5]; 1 mcg/ml, 3.125% of supernatant, T + PHA + IL-1 1696): 2516 c.p.m.; TCGF activity Δ % ([5]; 1 mcg/ml, 6.25% of supernatant): +192%; TCGF ACTIVITY c.p.m. ([5]; 1 mcg/ml, 6.25% of supernatant, T + PHA + IL-1 2817): 8218 c.p.m.; TCGF activity Δ % ([5]; 1 mcg/ml, 12.5% of supernatant): +308%; TCGF ACTIVITY c.p.m. ([5]; 1 mcg/ml, 12.5% of supernatant, T + PHA + IL-1 3663): 14932 c.p.m.; TCGF activity Δ % ([5]; 1 mcg/ml, 25% of supernatant): +256%; TCGF ACTIVITY c.p.m. ([5]; 1 mcg/ml, 25% of supernatant, T + PHA + IL-1 4812): 17148 c.p.m.; TCGF activity Δ % ([5]; 1 mcg/ml, 50% of supernatant): +159%; TCGF ACTIVITY c.p.m. ([5]; 1 mcg/ml, 50% of supernatant, T + PHA + IL-1 6297): 16293 c.p.m.; TCGF activity Δ % [5, 7]: +69%; TCGF ACTIVITY c.p.m. ([5]; 10 mcg/ml, 3.125% of supernatant, T + PHA + IL-1 1696): 2873 c.p.m.; TCGF activity Δ % [5, 8]: +155%; TCGF ACTIVITY c.p.m. ([5]; 10 mcg/ml, 6.25% of supernatant, T + PHA + IL-1 2817): 7192 c.p.m.; TCGF activity Δ % [5, 9]: +317%; TCGF ACTIVITY c.p.m. ([5]; 10 mcg/ml, 12.5% of supernatant, T + PHA + IL-1 3663): 15264 c.p.m.; TCGF activity Δ % ([5]; 10 mcg/ml, 25% of supernatant): +251%; TCGF ACTIVITY c.p.m. ([5]; 10 mcg/ml, 25% of supernatant, T + PHA + IL-1 4812): 16887 c.p.m.; TCGF activity Δ % ([5]; 10 mcg/ml, 50% of supernatant): +94%; TCGF ACTIVITY c.p.m. ([5]; 10 mcg/ml, 50% of supernatant, T + PHA + IL-1 6297): 12246 c.p.m.
